Assay results from patent US12558329B2 (New York University, priority 2021, dated 2026).
“Also recorded” adds a separate entry of the source.

Tested on: MIAPACA2 cells
Test: Pulse-chase study with tyrosine-derived intermediates after two weeks of 13C9-Tyr labelling
Assay type: cell-based, human
Conditions: exogenous metabolite, cells labelled with 13C9-Tyr for two weeks
Description: Using the same experimental scheme, the incorporation of Tyr-derived metabolites into CoQ10 was measured. […] For metabolomics, briefly, cells were washed in 4° C. 0.9% saline and metabolites were extracted with 46% methanol:23% H2O:[…] chloroform that contained a labelled amino acid standard mix (MSK-A2-1.2, Cambridge Isotope Laboratories, Inc.). Enzymatic assay samples were extracted using 80% methanol: 20% H2O that contained labelled amino acid standards. Extracts were placed into 1.5 mL Eppendorf tubes, vortexed at 4° C. for 10 min and centrifuged at 4° C. for 10 min at 17,200×g in a microcentrifuge. The aqueous phase was transferred to vials for GC-MS or Eppendorf tubes for LC-MS. Polar samples were evaporated in a […] and samples were resolved by GC-MS or LC-MS. Lipid samples were dried using a stream of N2 (for ^18O labelling studies) or air. Metabolite and lipid extracts were submitted to the […] Metabolomics Core Resource Laboratory. For polar metabolomics, the LC column was a Millipore ZIC-pHILIC (2.1×150 […], 5 μm bead size) coupled to a Dionex […] 3000 system. The column oven temperature was held at 25° C. The flow rate was 100 μL/min, and the injection volume was 1 μL. […] Peak heights were analyzed using Xcalibur (ThermoFisher Scientific). […] Peak heights were analyzed using Xcalibur (ThermoFisher Scientific).

Structure (SMILES)	intracellular accumulation (uptake) of the unlabelled metabolite
O=C(O)C(O)c1ccc(O)cc1 (racemic) [Metabolite 4-HMA, 2-hydroxy-2-(4-hydroxyphenyl)acetic acid]	readily taken up by cells; also recorded: substantial intracellular accumulation
O=C(O)c1ccc(O)cc1 [Metabolite 4-HB, 4-hydroxybenzoic acid]	substantial intracellular accumulation
